Data on five molecules can be found in article PMC8081665, “Structural and biochemical mechanisms of NLRP1 inhibition by DPP9” (Nature, 2021).

Assay [1] deals with T1, GST–rNLRP1 FIIND (wild type) (rat) (UniProt D9I2G3).
T1 sequence: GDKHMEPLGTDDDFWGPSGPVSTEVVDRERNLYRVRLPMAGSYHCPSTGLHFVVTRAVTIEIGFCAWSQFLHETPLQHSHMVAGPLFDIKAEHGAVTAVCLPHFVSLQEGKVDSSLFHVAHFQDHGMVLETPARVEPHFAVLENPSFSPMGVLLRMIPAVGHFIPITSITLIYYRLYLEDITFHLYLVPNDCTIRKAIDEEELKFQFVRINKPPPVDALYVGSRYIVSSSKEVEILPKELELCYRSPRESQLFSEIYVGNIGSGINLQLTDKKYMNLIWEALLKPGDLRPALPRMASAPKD
Put plainly: pull-down; GST fusion held on GS4B resin, incubated with an excess of purified DPP9 on ice for 60 min, washed five times with 10 mM Tris pH 8.0, 100 mM NaCl, eluted with GSH; SDS–PAGE with Coomassie staining; also with or without VbP; both purified.

Assay [2] has as its target T2, Flag-tagged rNLRP1 (rat) (UniProt D9I2G3).
T2 sequence: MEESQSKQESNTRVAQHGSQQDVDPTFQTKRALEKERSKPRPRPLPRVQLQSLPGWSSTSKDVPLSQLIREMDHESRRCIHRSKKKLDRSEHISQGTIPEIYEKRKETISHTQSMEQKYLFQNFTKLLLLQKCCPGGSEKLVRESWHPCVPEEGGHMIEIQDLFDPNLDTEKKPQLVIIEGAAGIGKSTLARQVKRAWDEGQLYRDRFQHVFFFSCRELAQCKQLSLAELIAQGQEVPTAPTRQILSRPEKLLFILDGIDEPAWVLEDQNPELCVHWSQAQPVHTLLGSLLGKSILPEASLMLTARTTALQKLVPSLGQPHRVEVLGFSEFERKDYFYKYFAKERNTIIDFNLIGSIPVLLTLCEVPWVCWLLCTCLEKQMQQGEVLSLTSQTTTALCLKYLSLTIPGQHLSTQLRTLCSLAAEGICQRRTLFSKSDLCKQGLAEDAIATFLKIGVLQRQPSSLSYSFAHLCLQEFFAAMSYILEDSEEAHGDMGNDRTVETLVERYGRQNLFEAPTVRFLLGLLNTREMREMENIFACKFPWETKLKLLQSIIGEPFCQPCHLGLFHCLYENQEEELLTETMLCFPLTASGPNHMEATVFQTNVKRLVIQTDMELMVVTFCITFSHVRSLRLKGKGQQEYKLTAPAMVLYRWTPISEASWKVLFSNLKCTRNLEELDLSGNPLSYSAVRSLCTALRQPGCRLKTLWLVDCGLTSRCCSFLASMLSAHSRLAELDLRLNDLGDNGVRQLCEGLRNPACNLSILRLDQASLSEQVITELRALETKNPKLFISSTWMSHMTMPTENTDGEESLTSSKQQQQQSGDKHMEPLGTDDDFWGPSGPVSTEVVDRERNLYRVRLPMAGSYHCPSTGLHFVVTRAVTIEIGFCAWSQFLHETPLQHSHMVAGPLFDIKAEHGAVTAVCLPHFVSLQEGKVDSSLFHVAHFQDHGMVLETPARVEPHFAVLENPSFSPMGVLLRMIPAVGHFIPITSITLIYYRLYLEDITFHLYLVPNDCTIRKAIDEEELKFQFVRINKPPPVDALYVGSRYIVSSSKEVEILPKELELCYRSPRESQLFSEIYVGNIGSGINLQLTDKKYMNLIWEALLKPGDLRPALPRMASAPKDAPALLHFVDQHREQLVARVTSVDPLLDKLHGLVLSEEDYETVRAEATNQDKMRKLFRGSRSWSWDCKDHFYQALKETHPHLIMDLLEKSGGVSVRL
Put plainly: co-IP; lysates of transfected 293T cells collected 48 h post transfection, anti-Flag immunoprecipitation, immunoblot. (A western blot detects proteins with antibodies after separation by electrophoresis.)

The target in assay [3] is preformed GST–rNLRP1 FIIND(S969A)–rDPP9 complex (rat). Briefly: SEC; Superose 6 10/30, 10 mM Tris pH 8.0, 100 mM NaCl; purified GST–rNLRP1 FIIND(S969A)–rDPP9 complex incubated with fully processed rNLRP1 FIIND at a molar ratio of about 1:1 at 4 °C for 150 min; both purified. (SEC sorts molecules by how far they enter the pores of the column.)
The target in assay [4] is rat DPP9 (rat). Put plainly: cryo-EM structure; purified complex after gel filtration, about 0.3 mg/ml in 25 mM Tris-HCl pH 8.0, 150 mM NaCl, 3 mM DTT; Titan Krios 300 kV; both purified.

No constants are given. Whether binding was seen depends on the method and setting. Binding can be weak; no strength is given. For some assays here: Sequences can lack the tags named with a protein. For some assays here: Binding seen in cells or lysates may run through a third protein.

On to rat DPP9 (enzyme), for which, in assay [1], the binding entry is on record as “binds”. For Myc-tagged rDPP9 (rat) (enzyme), the binding entry in assay [2] is reported as “binds”.

B1: rNLRP1 FIIND (residues 822-1122), autoprocessed (domain or fragment, UniProt D9I2G3 822-968; D9I2G3 969-1122)
chain 1: GDKHMEPLGTDDDFWGPSGPVSTEVVDRERNLYRVRLPMAGSYHCPSTGLHFVVTRAVTIEIGFCAWSQFLHETPLQHSHMVAGPLFDIKAEHGAVTAVCLPHFVSLQEGKVDSSLFHVAHFQDHGMVLETPARVEPHFAVLENPSF
chain 2: SPMGVLLRMIPAVGHFIPITSITLIYYRLYLEDITFHLYLVPNDCTIRKAIDEEELKFQFVRINKPPPVDALYVGSRYIVSSSKEVEILPKELELCYRSPRESQLFSEIYVGNIGSGINLQLTDKKYMNLIWEALLKPGDLRPALPRMASAPKD
As for B1, the binding result in assay [3] is reported as “binds”.

B2: rNLRP1 FIIND–CARD(S969A) (domain or fragment, UniProt D9I2G3 822-1218)
chain: GDKHMEPLGTDDDFWGPSGPVSTEVVDRERNLYRVRLPMAGSYHCPSTGLHFVVTRAVTIEIGFCAWSQFLHETPLQHSHMVAGPLFDIKAEHGAVTAVCLPHFVSLQEGKVDSSLFHVAHFQDHGMVLETPARVEPHFAVLENPSFAPMGVLLRMIPAVGHFIPITSITLIYYRLYLEDITFHLYLVPNDCTIRKAIDEEELKFQFVRINKPPPVDALYVGSRYIVSSSKEVEILPKELELCYRSPRESQLFSEIYVGNIGSGINLQLTDKKYMNLIWEALLKPGDLRPALPRMASAPKDAPALLHFVDQHREQLVARVTSVDPLLDKLHGLVLSEEDYETVRAEATNQDKMRKLFRGSRSWSWDCKDHFYQALKETHPHLIMDLLEKSGGVSVRL
For B2, in assay [4], the binding entry is given as “binds”.

B3: full-length rat NLRP1 (natural protein, UniProt D9I2G3 1-1218, looked up)
chain: T2 sequence
notes: rat NLRP1, residues 1-1218, gene synthesized from GenBank HM060632.1; Autocleaves in the FIIND between F968 and S969; of the second copy only UPA is seen, and the abstract calls it a UPA-CARD fragment; also called rNLRP1; full-length rNLRP1; source: sf21 insect cells (baculovirus), co-expressed with rDPP9, purified (GS4B, PreScission, gel filtration); not shown: GST, N-terminal, cleaved
For B3, the binding result in assay [4] is listed as “binds”.
